In US20160368951A1:
These are yes or no findings as the source states them, for the method shown. Some entries that bind do so weakly or less than the wild type.

Amino acid sequences for entries named in this document (tags omitted). Residues count along the entry.
UniProt P01556, residues 22-124: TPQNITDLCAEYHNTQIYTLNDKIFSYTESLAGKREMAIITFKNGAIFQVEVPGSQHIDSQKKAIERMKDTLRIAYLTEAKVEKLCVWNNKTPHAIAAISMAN

Target: CTB expressed in yeast (UniProt P01556)
Experiment: expression in a yeast system, molecular weight of the pentamer

CTB expressed in yeast (from UniProt P01556 22-124)
binding: binds
